Our source for the binding values is PMC12823551.

No constants are given. Whether binding was seen depends on the method and setting. Binding seen in cells or lysates may run through a third protein. Some entries that bind do so weakly or less than the wild type.

For the experiment, the target named is E2F4 (human (endogenous in hPSC-derived neuroectoderm cells)), Q16254. Kind of experiment: co-IP; neuroectoderm cells; nuclear and chromatin (Benzonase) extracts in Nuclear Lysis Buffer with 0.3% Triton X-100; 5 ug cross-linked antibodies, 12 h at 4 C; five washes; western blot; alternatively the nuclear complex co-IP kit (Active Motif). To be noted: remark: other sources report otherwise. In general terms: Immunoblotting shows a protein as a band on a membrane.

B1: RBL2/p130, Q08999 1-1139 (protein)
chain: MPSGGDQSPPPPPPPPAAAASDEEEEDDGEAEDAAPPAESPTPQIQQRFDELCSRLNMDEAARAEAWDSYRSMSESYTLEGNDLHWLACALYVACRKSVPTVSKGTVEGNYVSLTRILKCSEQSLIEFFNKMKKWEDMANLPPHFRERTERLERNFTVSAVIFKKYEPIFQDIFKYPQEEQPRQQRGRKQRRQPCTVSEIFHFCWVLFIYAKGNFPMISDDLVNSYHLLLCALDLVYGNALQCSNRKELVNPNFKGLSEDFHAKDSKPSSDPPCIIEKLCSLHDGLVLEAKGIKEHFWKPYIRKLYEKKLLKGKEENLTGFLEPGNFGESFKAINKAYEEYVLSVGNLDERIFLGEDAEEEIGTLSRCLNAGSGTETAERVQMKNILQQHFDKSKALRISTPLTGVRYIKENSPCVTPVSTATHSLSRLHTMLTGLRNAPSEKLEQILRTCSRDPTQAIANRLKEMFEIYSQHFQPDEDFSNCAKEIASKHFRFAEMLYYKVLESVIEQEQKRLGDMDLSGILEQDAFHRSLLACCLEVVTFSYKPPGNFPFITEIFDVPLYHFYKVIEVFIRAEDGLCREVVKHLNQIEEQILDHLAWKPESPLWEKIRDNENRVPTCEEVMPPQNLERADEICIAGSPLTPRRVTEVRADTGGLGRSITSPTTLYDRYSSPPASTTRRRLFVENDSPSDGGTPGRMPPQPLVNAVPVQNVSGETVSVTPVPGQTLVTMATATVTANNGQTVTIPVQGIANENGGITFFPVQVNVGGQAQAVTGSIQPLSAQALAGSLSSQQVTGTTLQVPGQVAIQQISPGGQQQKQGQSVTSSSNRPRKTSSLSLFFRKVYHLAAVRLRDLCAKLDISDELRKKIWTCFEFSIIQCPELMMDRHLDQLLMCAIYVMAKVTKEDKSFQNIMRCYRTQPQARSQVYRSVLIKGKRKRRNSGSSDSRSHQNSPTELNKDRTSRDSSPVMRSSSTLPVPQPSSAPPTPTRLTGANSDMEEEERGDLIQFYNNIYIKQIKTFAMKYSQANMDAPPLSPYPFVRTGSPRRIQLSQNHPVYISPHKNETMLSPREKIFYYFSNSPSKRLREINSMIRTGETPTKKRGILLEDGSESPAKRICPENHSALLRRLQDVANDRGSH
With B1, the binding entry was “binds”.
